Source: article PMC12710714

Test system: His-NbARF19 DBD (Nicotiana benthamiana)
Experiment: EMSA
Conditions: EMSA: protein dialyzed in 1x PBS, incubated with labeled probe 20 min at room temperature, agarose gel, Odyssey DLx imaging, binding buffer, recombinant protein, protein details: His (pET28a)

Sequence	binding result (excess unlabeled probe competes)	binding result (unlabeled probe competes)
AATCAAAACGAGAGAAACAGAGAGCCGACATAGTCTTAACCACCGGTGAA (double strand) [NbGSL8 promoter probe (M2 AuxRE)]	binds	
CCAGACACAAACTTGTGGCCAGATAAGATGTTGACACCAGATATGAACCTGTTGTCGGA (double strand) [NbYUC8 promoter probe (AuxRE)]		binds

The exact form of at least one protein or probe is not confirmed.
